## Screening data, single-dose tests

Amino acid sequences for entries named in this document (tags omitted). Residues count along the entry.
UniProt P9WPC5, whole entry: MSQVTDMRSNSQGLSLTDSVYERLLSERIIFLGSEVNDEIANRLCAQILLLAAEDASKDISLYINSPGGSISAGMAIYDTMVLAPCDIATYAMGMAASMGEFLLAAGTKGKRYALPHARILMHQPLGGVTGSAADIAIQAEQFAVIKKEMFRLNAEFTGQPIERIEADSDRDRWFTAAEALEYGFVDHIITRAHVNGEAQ
UniProt P9WPC3, whole entry partner: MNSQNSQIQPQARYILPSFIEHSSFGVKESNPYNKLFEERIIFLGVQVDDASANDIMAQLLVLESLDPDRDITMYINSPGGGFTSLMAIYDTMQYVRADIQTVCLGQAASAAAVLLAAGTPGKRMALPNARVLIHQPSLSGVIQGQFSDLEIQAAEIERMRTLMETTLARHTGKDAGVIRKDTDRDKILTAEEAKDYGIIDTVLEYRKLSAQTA
UniProt P9WNZ1, whole entry: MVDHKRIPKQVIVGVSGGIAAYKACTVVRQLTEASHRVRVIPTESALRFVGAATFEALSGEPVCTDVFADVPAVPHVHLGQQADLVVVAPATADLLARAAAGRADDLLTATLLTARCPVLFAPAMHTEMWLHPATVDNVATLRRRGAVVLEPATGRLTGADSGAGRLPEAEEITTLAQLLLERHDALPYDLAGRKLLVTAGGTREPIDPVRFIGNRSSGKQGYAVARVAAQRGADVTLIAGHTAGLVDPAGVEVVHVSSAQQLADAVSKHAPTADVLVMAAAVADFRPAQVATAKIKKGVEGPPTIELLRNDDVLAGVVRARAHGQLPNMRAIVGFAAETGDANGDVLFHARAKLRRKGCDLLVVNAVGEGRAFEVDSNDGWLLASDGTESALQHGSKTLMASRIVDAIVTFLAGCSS
UniProt Q8IDJ8, 1-583: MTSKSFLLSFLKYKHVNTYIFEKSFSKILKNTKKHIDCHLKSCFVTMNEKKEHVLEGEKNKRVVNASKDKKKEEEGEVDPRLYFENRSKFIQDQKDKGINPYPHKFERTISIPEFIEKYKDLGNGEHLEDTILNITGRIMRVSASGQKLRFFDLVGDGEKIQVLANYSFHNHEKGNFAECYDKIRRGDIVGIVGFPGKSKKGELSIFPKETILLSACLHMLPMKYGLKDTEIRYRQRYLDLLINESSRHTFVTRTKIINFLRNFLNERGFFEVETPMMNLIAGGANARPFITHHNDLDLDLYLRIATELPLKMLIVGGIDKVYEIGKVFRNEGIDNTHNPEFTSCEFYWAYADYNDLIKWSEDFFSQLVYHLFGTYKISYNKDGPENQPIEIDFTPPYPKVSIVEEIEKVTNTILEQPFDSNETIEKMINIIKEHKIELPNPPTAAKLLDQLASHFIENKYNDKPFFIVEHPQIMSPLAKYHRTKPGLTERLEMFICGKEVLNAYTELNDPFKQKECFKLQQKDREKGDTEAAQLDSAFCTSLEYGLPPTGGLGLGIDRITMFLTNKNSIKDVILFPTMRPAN
UniProt Q4DA54, 1-478: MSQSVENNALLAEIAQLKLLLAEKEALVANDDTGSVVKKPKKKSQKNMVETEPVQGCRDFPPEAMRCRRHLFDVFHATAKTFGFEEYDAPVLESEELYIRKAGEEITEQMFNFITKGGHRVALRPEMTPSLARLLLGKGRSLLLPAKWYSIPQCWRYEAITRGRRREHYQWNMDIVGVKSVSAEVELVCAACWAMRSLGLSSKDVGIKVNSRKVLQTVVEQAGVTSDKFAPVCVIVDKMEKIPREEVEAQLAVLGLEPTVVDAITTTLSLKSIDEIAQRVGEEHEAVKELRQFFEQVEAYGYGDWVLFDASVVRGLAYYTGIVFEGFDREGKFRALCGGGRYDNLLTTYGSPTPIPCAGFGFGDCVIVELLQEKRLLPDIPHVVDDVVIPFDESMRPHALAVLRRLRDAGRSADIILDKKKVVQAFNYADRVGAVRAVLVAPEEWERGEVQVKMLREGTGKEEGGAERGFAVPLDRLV
UniProt I6X8D2, whole entry: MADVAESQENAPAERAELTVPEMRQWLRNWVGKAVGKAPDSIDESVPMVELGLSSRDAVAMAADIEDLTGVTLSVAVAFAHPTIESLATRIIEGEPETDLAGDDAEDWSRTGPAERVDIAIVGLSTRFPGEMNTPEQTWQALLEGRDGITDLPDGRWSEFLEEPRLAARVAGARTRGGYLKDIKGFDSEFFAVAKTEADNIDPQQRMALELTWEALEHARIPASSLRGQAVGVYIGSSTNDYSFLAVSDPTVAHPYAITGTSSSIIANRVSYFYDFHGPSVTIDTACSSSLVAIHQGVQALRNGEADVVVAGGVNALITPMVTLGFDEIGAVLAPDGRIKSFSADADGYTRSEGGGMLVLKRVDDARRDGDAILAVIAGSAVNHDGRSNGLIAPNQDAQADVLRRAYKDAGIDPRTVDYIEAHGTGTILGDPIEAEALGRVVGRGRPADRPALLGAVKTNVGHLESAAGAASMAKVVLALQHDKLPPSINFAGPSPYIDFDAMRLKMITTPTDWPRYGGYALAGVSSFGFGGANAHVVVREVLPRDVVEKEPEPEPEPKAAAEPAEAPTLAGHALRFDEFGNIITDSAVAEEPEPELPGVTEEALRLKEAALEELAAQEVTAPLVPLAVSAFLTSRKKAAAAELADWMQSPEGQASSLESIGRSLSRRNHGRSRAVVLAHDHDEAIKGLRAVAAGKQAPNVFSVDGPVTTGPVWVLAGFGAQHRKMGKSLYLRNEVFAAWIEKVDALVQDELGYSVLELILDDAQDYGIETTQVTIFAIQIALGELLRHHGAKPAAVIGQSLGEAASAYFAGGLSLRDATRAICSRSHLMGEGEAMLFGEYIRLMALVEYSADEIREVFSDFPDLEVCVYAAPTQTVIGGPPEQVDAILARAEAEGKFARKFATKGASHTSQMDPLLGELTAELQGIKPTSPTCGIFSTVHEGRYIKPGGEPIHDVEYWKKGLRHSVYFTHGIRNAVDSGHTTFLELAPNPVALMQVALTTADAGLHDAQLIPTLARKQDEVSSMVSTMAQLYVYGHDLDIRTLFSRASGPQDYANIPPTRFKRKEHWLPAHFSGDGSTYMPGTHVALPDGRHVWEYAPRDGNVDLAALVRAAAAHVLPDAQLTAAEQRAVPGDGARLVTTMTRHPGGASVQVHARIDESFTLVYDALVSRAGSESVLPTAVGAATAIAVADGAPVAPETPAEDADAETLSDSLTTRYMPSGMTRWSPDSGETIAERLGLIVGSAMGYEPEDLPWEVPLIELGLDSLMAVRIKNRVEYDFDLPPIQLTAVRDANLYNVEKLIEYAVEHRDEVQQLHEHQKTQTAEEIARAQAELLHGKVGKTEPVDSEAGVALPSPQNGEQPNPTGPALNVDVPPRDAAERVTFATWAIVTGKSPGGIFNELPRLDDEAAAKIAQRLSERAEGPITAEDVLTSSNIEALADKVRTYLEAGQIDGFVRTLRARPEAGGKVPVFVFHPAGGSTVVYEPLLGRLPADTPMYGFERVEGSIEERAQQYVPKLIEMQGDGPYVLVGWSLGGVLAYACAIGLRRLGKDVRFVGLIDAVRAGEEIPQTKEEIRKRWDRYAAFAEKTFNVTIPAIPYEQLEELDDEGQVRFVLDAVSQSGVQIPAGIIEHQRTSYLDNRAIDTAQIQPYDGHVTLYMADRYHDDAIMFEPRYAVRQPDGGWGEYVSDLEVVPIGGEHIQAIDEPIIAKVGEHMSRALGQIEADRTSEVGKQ

Measurements from “University of Dundee, Small-Polar-MMV Screening Library” (2021), ChEMBL document CHEMBL3988442.

A: 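Protease assay of ClpP1P2, read by the AMC dye that it sets free. Target: ClpP1P2, Mycobacterium tuberculosis (UniProt P9WPC5 and UniProt P9WPC3). Concentration: 50 µM. Higher reads as stronger inhibition, judged from the few compounds that gave an IC50. Most other retested compounds had strongly negative values. Of about 69,000 compounds tested this way, about 10 (0.015%) reached 50% or more in at least one test.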
B: 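Coenzyme A biosynthesis protein CoaBC, Mycobacterium tuberculosis (UniProt P9WNZ1). Enzyme assay of CoaBC with a phosphate dye (Biomol Green) read at 650 nm. Compounds at 30 µM. Higher reads as stronger inhibition, judged from the few compounds that gave an IC50. Most strong results did not repeat in a second test. Of about 67,000 compounds tested this way, about 40 (0.06%) reached 50% or more in at least one test.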
C: 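Enzyme assay of the cytosolic lysyl-tRNA synthetase in 384-well plates, read by luminescence. Target: Lysine-tRNA ligase, Plasmodium falciparum 3D7 (UniProt Q8IDJ8). Concentration: 30 µM. Higher reads as stronger inhibition, judged from the few compounds that gave an IC50. About 69,000 compounds were tested under these conditions; 0.071% (about 49) showed 50% or more at least once.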
D: 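Enzyme assay of histidyl-tRNA synthetase; the read-out is not stated. Target: Histidine-tRNA ligase, Trypanosoma cruzi CL Brener (UniProt Q4DA54). Tested at 30 µM. The record gives no direction; compounds that gave an IC50 in retests scored well above the rest, so higher reads as stronger inhibition. Size under these conditions: about 69,000 compounds, about 31 of them at 50% or above in at least one test.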
E: 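Polyketide synthase Pks13, Mycobacterium tuberculosis (UniProt I6X8D2). Enzyme assay of the thioesterase domain of polyketide synthase 13; the read-out is not stated. Concentration: 30 µM. The record gives no direction; the compounds picked for IC50 retests had high values, so higher reads as stronger inhibition. Of about 67,000 compounds tested this way, about 300 (0.46%) reached 50% or more in at least one test.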

Results are given as percent effect.
The record does not define 0% and 100%; most values in the screen are far below 50% and negative numbers occur (in some assays of this library far below -100).
Compounds were drawn at random from those tested, without regard to their results.

- CNC(=O)C1(CCCc2cnccn2)CCN1Cc1ccc(C)cc1 (configuration not stated) : A: -1.783%; B: 3.154%; C: -2.291%; D: 8.333%; E: -3.172%
- Cc1ccc(C(=O)N2C[C@@H]3CN(c4ncccn4)C[C@@H]3C2)cc1 : A: -1.215%; B: -7.172%; C: 3.28%; D: 2.299%; E: -19.31%
- O=C(C[C@@H]1COC[C@H]2CN(Cc3cccnc3)C[C@@H]12)N1CCCC1 : A: 7.046%; B: 3.716%; C: 4.234%; D: 13.07%
- CC(C)S(=O)(=O)CC(=O)N(Cc1ccsc1)c1ccccc1 : A: -1.373%; B: 1.737%; C: 9.695%; D: 19.08%; E: -10.28%
- Cc1cc(C)n(CC2CCCN2C(=O)c2ccc3ccccc3n2)n1 (configuration not stated) : A: -5.186%; B: 8.075%; C: -1.474%; D: 4.298%; E: -6.379%
- CCc1noc(C)c1C(=O)N1CCCC1c1c(C)nn(C)c1C (configuration not stated) : A: -11.93%; B: 3.15%; C: 2.289%; D: 1.714%; E: -16.4%
- O=C(Cn1cc(Cl)cn1)Nc1ccc2c(c1)OCCCO2 : A: 0.6424%; B: 0.1209%; C: 12.26%; D: 12.34%; E: -6.571%
- O=C(c1cc2c(s1)CCCC2)N1CCCC1Cn1cccn1 (configuration not stated) : A: -30.12%; B: 8.301%; C: -1.492%; D: 6.936%; E: -12.33%
- COCc1nn(CC2CC2)c2c1CN(Cc1cncn1C)CC2 : A: -12.23%; B: 1.527%; C: 0.39%; D: 3.883%; E: -30.03%
- CS(=O)(=O)c1ccc(NC(=O)N2CCc3sccc3C2)cn1 : A: 6.484%; B: -4.348%; C: 13.43%; D: 2.674%; E: -7.949%
- Cc1ccc(S(=O)(=O)N2CCCC(c3n[nH]cc3C(=O)N(C)C)C2)cc1 (configuration not stated) : A: 6.451%; B: -2.138%; C: 1.061%; D: 2.308%; E: -20.45%
- O=C(c1cc(-c2cccs2)cs1)N1CCOCC1 : A: -27.91%; B: 2.296%; C: 1.516%; D: 7.589%; E: 3.49%
- CN1CCN(CC(=O)NCc2ccco2)Cc2ccccc21 : A: -1.868%; B: 0%; C: 6.194%; D: 3.704%; E: -13.89%
- c1ccc(CCc2n[nH]c(C3CCC3)n2)cc1 : A: -0.49%; B: -2.512%; C: 5.744%; D: 4.721%; E: 0.7139%
- Fc1ccc(F)c(CN2CCC(c3n[nH]c4ncccc34)CC2)c1 : A: -9.194%; B: 2.451%; C: 0.5584%; D: 3.191%; E: 15.44%
- Cc1ccncc1C(=O)N1C[C@@H]2CN(c3ncccn3)C[C@]2(C(=O)O)C1 : A: -11.03%; B: 3.947%; C: 3.395%; D: -0.4292%; E: -2.103%
- CCCC(C(=O)NC1CCN(S(C)(=O)=O)CC1)c1ccccc1 (configuration not stated) : A: 4.361%; C: -0.8945%; D: 5.263%; E: -36.8%
- CC(C)(C)OC(=O)N1CSC[C@@H]1C(=O)NCc1cccc(C#N)c1 : A: -5.038%; B: -1.499%; C: 6.072%; D: 8.901%; E: -13.13%
- CCOC1CCCN(C(=O)c2ccccc2NCc2cccnc2)C1 (configuration not stated) : A: -15.43%; B: 6.777%; C: -2.118%; D: 3%; E: -1.211%
- Cc1cc(C)n(CCC(=O)N2CCC(c3nc(C(C)C)no3)CC2)n1 : A: -3.807%; B: 16.36%; C: -0.9411%; D: -1.674%; E: -5.88%
- Cc1cc(N)nc(SC2CCN(c3ccccc3F)C2=O)n1 (configuration not stated) : A: -2.707%; B: 4.073%; C: 0.7301%; D: 0.5291%; E: -5.26%
- COc1ccc(N2CCN(C(=O)CCCc3cn[nH]c3)CC2=O)cc1 : A: 8.336%; B: 4.3%; C: -5.83%; D: 11.9%; E: -4.533%
- CCN(CC)c1ccc2ccc(C(=O)N(C)C)cn12 : A: 3.66%; C: -2.443%; D: 31.9%; E: 18.17%
- CS(=O)(=O)N1CCN(C(=O)c2cnn3c2OCCC3)CC1 : A: 4.315%; B: 1.083%; C: 2.547%; D: 6.533%; E: -2.196%
- CCc1noc(C(C)N2CCC(N3CCCC3)CC2)n1 (configuration not stated) : A: -3.883%; B: 6.389%; C: 3.146%; D: -1.887%; E: -17.43%

2 of the entries, repeated:

* Cc1cc(C)n(CCC(=O)N2CCC(c3nc(C(C)C)no3)CC2)n1 : A: -3.807%; B: 16.36%; C: -0.9411%; D: -1.674%; E: -5.88%
* Fc1ccc(F)c(CN2CCC(c3n[nH]c4ncccc34)CC2)c1 : A: -9.194%; B: 2.451%; C: 0.5584%; D: 3.191%; E: 15.44%